Measurements as given in the supplement of paper PMC10849652.
The other results are listed elsewhere or left out.

Protein sequences, listed by entry. Tags and fused reporters are not part of them. Lines headed by an entry give the natural chain unless they say otherwise; changes in a name come on top.
UniProt Q06210: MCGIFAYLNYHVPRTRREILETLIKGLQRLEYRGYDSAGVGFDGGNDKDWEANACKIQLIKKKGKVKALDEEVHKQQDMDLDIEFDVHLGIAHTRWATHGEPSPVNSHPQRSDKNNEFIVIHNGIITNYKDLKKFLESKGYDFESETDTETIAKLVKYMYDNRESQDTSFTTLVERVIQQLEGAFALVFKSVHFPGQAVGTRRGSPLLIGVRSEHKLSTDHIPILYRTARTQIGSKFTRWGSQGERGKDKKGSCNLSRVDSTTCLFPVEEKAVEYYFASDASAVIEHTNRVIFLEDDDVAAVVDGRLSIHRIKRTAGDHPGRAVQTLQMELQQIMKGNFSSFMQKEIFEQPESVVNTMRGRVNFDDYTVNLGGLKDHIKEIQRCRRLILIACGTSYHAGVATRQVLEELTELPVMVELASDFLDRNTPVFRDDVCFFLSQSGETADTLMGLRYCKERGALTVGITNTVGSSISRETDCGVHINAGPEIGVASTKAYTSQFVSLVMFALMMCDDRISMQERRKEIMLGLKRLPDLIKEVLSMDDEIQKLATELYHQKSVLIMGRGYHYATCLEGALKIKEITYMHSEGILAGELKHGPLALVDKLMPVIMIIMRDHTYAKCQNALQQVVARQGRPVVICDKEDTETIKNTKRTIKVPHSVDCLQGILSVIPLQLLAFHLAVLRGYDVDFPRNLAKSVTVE
UniProt P16383: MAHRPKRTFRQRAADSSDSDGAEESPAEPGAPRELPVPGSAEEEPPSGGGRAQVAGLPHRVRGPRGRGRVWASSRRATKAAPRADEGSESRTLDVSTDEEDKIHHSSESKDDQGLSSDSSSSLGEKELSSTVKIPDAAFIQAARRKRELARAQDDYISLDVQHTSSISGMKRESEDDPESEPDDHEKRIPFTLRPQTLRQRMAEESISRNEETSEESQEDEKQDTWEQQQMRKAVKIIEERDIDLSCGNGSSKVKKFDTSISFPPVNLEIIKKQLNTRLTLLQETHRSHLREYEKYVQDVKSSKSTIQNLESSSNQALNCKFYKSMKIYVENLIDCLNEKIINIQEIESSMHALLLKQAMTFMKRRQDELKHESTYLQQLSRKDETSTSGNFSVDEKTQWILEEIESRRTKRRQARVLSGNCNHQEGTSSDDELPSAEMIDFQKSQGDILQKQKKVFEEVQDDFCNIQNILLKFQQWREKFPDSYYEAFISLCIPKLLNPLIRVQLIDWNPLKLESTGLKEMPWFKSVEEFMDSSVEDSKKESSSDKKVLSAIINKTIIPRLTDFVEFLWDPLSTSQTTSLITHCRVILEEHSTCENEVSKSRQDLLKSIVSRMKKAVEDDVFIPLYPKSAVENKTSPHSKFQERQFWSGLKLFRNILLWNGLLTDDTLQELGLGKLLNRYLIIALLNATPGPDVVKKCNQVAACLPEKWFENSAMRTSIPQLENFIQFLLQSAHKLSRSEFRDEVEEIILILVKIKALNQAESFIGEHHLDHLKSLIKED
UniProt Q96I24: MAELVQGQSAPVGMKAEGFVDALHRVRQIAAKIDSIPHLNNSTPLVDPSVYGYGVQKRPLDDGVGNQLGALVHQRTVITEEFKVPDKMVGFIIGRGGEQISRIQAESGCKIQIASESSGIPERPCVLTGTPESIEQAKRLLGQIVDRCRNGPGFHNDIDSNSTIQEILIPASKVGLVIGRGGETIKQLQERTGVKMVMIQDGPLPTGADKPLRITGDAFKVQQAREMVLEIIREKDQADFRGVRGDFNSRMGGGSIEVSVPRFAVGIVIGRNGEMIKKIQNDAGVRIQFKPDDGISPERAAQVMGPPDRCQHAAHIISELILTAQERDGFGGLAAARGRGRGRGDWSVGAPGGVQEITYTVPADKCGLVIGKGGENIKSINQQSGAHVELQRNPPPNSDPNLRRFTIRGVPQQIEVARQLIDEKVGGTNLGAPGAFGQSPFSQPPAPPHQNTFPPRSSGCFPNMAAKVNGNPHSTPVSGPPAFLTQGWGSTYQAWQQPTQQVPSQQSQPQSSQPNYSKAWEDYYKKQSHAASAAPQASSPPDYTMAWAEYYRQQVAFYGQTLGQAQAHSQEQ
UniProt Q9H2C0: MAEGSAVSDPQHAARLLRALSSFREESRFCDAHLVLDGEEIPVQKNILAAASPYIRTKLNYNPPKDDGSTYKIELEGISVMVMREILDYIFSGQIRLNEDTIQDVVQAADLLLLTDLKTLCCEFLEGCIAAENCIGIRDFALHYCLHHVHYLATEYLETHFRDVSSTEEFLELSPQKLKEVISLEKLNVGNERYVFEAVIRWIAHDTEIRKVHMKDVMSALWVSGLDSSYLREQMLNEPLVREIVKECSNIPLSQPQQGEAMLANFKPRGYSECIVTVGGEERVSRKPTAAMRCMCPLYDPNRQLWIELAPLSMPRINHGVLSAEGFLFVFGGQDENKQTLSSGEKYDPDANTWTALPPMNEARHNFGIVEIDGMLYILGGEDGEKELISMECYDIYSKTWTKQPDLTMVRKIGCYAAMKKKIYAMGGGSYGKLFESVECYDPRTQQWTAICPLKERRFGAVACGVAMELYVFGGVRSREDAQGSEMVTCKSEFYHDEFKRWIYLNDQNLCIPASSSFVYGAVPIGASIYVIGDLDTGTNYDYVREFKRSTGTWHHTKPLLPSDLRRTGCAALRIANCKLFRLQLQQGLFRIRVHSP
UniProt Q9BWH2: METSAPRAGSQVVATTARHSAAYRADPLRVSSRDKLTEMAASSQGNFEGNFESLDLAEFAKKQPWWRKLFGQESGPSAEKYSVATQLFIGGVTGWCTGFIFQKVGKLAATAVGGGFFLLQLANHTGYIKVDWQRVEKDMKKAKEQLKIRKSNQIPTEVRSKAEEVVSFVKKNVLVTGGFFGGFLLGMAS
UniProt Q9BQS8: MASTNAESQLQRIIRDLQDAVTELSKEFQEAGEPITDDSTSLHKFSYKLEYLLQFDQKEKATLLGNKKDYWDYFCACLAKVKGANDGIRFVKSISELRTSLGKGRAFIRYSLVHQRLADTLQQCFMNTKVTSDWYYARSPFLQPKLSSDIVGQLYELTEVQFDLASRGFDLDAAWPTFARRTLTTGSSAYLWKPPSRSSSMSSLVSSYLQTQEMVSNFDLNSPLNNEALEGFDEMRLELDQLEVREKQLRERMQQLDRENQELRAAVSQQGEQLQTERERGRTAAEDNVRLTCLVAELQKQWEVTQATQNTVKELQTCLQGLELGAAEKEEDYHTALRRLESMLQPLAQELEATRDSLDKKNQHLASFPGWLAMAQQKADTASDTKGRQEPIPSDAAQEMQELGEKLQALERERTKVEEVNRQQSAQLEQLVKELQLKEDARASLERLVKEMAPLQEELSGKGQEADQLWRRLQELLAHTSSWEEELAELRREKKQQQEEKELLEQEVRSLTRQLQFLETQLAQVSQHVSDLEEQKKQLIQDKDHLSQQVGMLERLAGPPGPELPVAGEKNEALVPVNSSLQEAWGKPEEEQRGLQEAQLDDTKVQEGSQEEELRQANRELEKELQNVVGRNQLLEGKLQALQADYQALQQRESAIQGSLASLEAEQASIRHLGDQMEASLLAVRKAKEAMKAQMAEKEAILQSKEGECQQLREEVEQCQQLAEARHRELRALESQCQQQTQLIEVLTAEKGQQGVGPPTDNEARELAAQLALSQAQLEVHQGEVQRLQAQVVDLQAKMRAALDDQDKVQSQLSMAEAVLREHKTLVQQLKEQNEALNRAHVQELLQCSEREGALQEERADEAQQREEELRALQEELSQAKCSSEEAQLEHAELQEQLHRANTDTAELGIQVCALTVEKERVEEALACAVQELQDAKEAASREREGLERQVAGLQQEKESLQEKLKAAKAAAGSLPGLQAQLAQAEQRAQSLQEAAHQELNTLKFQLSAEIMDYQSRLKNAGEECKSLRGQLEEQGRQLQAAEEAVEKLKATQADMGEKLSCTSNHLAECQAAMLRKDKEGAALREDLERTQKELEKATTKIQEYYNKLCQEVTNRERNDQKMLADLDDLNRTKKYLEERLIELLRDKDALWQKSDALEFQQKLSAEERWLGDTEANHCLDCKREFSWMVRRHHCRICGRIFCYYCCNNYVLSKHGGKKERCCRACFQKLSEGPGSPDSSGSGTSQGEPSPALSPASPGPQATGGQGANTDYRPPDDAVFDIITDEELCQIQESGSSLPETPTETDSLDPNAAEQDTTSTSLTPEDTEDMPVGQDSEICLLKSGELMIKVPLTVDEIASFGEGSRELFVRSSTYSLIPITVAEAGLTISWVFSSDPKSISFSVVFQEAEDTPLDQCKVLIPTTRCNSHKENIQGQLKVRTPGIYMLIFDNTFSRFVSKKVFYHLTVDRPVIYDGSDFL
UniProt Q8IVP5: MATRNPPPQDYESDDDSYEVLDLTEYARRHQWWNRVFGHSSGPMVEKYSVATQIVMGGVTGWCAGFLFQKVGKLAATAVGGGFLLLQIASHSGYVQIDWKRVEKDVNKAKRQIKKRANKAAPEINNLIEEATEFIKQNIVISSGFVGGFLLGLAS
UniProt Q8NCL4: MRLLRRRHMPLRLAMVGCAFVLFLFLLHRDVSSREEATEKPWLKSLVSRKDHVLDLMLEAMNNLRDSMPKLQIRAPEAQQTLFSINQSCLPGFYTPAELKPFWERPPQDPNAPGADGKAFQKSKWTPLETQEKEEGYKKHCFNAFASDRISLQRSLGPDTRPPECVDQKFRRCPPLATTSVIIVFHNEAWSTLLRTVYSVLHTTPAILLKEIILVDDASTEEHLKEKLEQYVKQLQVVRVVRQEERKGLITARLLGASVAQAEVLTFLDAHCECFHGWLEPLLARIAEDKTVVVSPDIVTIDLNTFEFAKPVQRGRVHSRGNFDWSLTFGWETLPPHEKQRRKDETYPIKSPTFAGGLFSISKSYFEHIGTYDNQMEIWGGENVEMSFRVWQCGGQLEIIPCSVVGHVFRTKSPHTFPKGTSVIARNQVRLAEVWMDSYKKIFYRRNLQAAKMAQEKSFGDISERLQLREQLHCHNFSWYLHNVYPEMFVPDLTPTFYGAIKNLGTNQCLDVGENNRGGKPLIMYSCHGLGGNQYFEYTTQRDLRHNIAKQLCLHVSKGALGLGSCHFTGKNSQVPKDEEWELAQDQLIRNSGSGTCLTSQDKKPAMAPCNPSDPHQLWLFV
UniProt P28676: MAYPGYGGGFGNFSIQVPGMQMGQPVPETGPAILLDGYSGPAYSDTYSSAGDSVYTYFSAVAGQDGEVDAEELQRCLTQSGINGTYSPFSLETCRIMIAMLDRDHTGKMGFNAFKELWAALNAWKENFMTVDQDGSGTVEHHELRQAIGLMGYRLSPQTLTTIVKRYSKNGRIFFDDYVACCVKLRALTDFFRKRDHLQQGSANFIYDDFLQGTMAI

Legend:
Assay in all cases: log2 fold change, soluble protein after heating vs DMSO (PISA); higher = thermal stabilisation; K562 lysate, 10 uM; active = over 0.2 and 3.5 SD of the protein, either way, in both replicates (recomputed)
[1] = compound: C#Cc1cccc(Nc2ncnc3cc(OCCOC)c(OCCOC)cc23)c1 [erlotinib]
Method in brief: (§1)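 Pellets of K562 cells were dounce-homogenised in PBS pH 7.4 with 1 mM MgCl2, and the crude extract was held at 1 mg/mL protein for a 30 min treatment with 10 μM compound. Aliquots were heated for 3 min over 48°C-58°C and pooled before NP-40 was added to 0.5% at 4°C. The supernatant from 21,000xg for 90 min was quantified by TMTpro 16plex LC-MS/MS with channel sums equalised. Values are reported from duplicates as log-two fold change in thermal stability relative to solvent controls.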

[2] = compound: C/C(=N\NC(=O)C1=CC(=CC=C1)S(=O)(=O)N2CCOCC2)/C3=C(C=CC(=C3)Cl)O
Method in brief: as §1

[3] = compound: C1=CC(=CC=C1C2=NC3=C(N2)C=C(C=C3)C(=O)N)OC4=CC=C(C=C4)Cl
Method in brief: as §1

[4] = compound: C1=CC2=C(C=CC(=C2)/C=C\3/C(=O)NC(=NCC4=CC=CS4)S3)N=C1
Method in brief: as §1

[5] = compound: C1=CC2=NC=CN=C2C=C1/C=C/3\C(=O)NC(=O)S3
Method in brief: as §1

[6] = compound: C1=CC=C(C=C1)C2=NC(=C(N2)C3=CC=NC=C3)C4=CC(=C(C=C4)Cl)O
Method in brief: as §1

[7] = compound: C1=CC=C2C(=C1)C3=NNC4=CC=CC(=C43)C2=O
Method in brief: as §1

[8] = compound: C1CCN(C1)C(=O)NC2=CC=CC(=C2)NC3=NC=C(C(=N3)NCCC4=CN=CN4)Br
Method in brief: as §1

[9] = compound: C1CN(CCC1(CC2=CC=C(C=C2)Cl)N)C3=NC=NC4=C3C=CN4
Method in brief: as §1

[10] = compound: C1COCCN1CCN2C3=CC=CC=C3N=C2NC(=O)C4=CC(=CC=C4)[N+](=O)[O-] [IRAK-1-4 Inhibitor I]
Method in brief: as §1

Measured: log2 fold change

GFPT1 (UniProt Q06210)
inactive: [1] 0.031 | [2] -0.008 | [3] 0.003 | [4] 0.013 | [5] -0.008 | [6] 0.001 | [7] -0.014 | [8] -0.021 | [9] 0.008 | [10] 0.006

GCFC2 (UniProt P16383)
inactive: [1] 0.049 | [2] -0.05 | [3] 0.012 | [4] -0.02 | [5] 0.016 | [6] -0.016 | [7] -0.025 | [8] 0 | [9] 0 | [10] 0.021

FUBP3 (UniProt Q96I24)
inactive: [1] -0.023 | [2] 0.003 | [3] 0.04 | [4] 0.007 | [5] -0.009 | [6] -0.141 | [7] -0.033 | [8] -0.038 | [9] 0.003 | [10] 0.023

GAN (UniProt Q9H2C0)
inactive: [1] 0.045 | [2] -0.01 | [3] 0.075 | [4] 0.008 | [5] -0.022 | [6] -0.004 | [7] -0.028 | [8] -0.031 | [9] 0.015 | [10] 0.053

FUNDC2 (UniProt Q9BWH2)
inactive: [1] -0.011 | [2] -0.014 | [3] -0.027 | [4] -0.033 | [5] -0.011 | [6] 0.022 | [7] 0.003 | [8] 0.003 | [9] -0.008 | [10] 0.021

FYCO1 isoform 4 (UniProt Q9BQS8)
inactive: [1] 0.029 | [2] 0.026 | [3] 0.014 | [4] -0.01 | [5] -0.019 | [6] -0.006 | [7] -0.016 | [8] -0.013 | [9] 0.009 | [10] 0

FUNDC1 (UniProt Q8IVP5)
inactive: [1] 0.033 | [2] 0.067 | [3] -0.187 | [4] 0.16 | [6] 0.035 | [7] 0.113 | [8] -0.042 | [9] 0.066 | [10] -0.075

FREM2 (UniProt Q5SZK8)
inactive: [1] 0.015 | [2] -0.095 | [3] -0.109 | [4] -0.065 | [5] 0.047 | [6] 0.008 | [7] -0.051 | [8] -0.02 | [9] -0.021 | [10] 0.009

GALNT6 (UniProt Q8NCL4)
inactive: [1] 0.063 | [2] 0.021 | [3] -0.054 | [4] 0.014 | [5] -0.119 | [7] -0.015 | [8] -0.038 | [9] -0.025

GCA (UniProt P28676)
inactive: [1] -0.115 | [3] -0.037
